According to publication PMC4880191:
The exact form of at least one protein or probe is not confirmed. Weaker means in comparison with the reference protein, sequence or condition of that experiment.

Protein sequences, listed by entry. Tags and fused reporters are not part of them. Residues count along the entry.
UniProt P05455, 114-326: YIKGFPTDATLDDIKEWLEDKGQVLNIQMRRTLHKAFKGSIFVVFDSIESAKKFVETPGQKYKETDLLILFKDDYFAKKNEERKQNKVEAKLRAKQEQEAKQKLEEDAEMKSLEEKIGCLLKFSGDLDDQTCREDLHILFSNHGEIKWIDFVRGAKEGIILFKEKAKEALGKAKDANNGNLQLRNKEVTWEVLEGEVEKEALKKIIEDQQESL

Biological target: La RRM1+2 WT, native (human) (UniProt P05455)
Assay: EMSA
Details: SUMO-GA reaction, no strong complex; L37/L22 EMSA: 1x binding buffer (from 2x: 3 mM MgCl2, 300 mM NaCl, 1 mM EDTA, 0.1% Nonidet P-40), i.e. 1.5 mM MgCl2, 150 mM NaCl, 0.5 mM EDTA, 0.05% NP-40; pH not stated; recombinant protein; residues 114-326; protein details: His6 (pET28b); label: 3'-Cy3

Row | Sequence | binding result
1 | CUCCUCUGCCGCCAUGGCUCCUGUGAAAAAGCUUGUG [L22 TOP RNA] | binds more weakly
2 | UUCCGGUCUCUUUGGCCUCGCCGGUAGAAGCAAGAUG [L37 TOP RNA] | binds more weakly
